This continues a long series; more values of the same kind are listed elsewhere.
Experiment: Assay (I): Determination of Solubility (96-well plate, pH 3.0-11.0, organic solvent 0-70% w/w, UV absorption at 280 nm)
Type: physicochemical
Conditions: Method 1 (evaporation)
Procedure: Assay (I): Determination of Solubility
96-Well Plate Preparation
96-well plates containing target peptide in a solid form were prepared in one of two ways:
Method 1 (evaporation): Addition of 100 μl stock solution of said peptide at a concentration of 4-6 mg/ml to each well of a 96-well half area plate (150 μl well size). Subsequently the solvent was evaporated by applying a vacuum until the solvent was completely removed.
Method 2 (precipitation): Addition of a certain volume of a stock solution of said peptide containing to each well of a 96-well half area plate followed by the addition of a certain volume of concentrated phosphoric acid to obtain a pH of 4.6 followed by addition of a certain volume of ethanol resulting in a final ethanol concentration of 20% v/v. Subsequently the plate was stored at 4° C. for 1 h and then centrifuged at 4,000 rpm for 20 min. Finally the supernatant was removed. The concentration of the stock solution was chosen in a way that the final amount of peptide after supernatant removal was >0.4 mg per well.
In both cases the stock solution was prepared by adding de-ionized water to a certain amount of powder of said peptide followed by a stepwise addition of small amounts of a concentrated sodium hydroxide solution until said peptide was completely in solution.
To determine solubility of a target peptide at different pH and organic solvent concentrations, two different buffer systems were used in independent experiments to cover the whole range from pH 3.0 to pH 11.0. Buffer system 1 covers pH 3.0-7.5 and buffer system 2 covers pH 7.5-11.0. For each buffer system 96 different solvent compositions were premixed in the following way: • 1. A low pH buffer (adjusted to either pH 3.0 or pH 7.5) and a high pH buffer (adjusted to either pH 7.5 or pH 11.0) were mixed at 8 different ratios to obtain values between pH 3.0 and pH 7.5 or pH 7.5 and pH 11.0, respectively. The total volume after mixing was 300 μl. • 2. 12 different amounts of organic solvent were then added to these buffers to obtain organic solvent (e.g. ethanol) concentrations between 0 and 70% w/w. • 3. Water was then added to obtain a total weight of 1.0 g of solvent in each well.
After preparing the 96 different solvent systems, 100 μl of each system was transferred to the 96-well plate containing the solid form of the target peptide (prepared as described in the section “96-well plate preparation”). The plate was then stored at a given temperature (between 5° C. and 70° C.) for a given time on a rotating shaker set to 400 rpm. At regular time intervals the plate was centrifuged (4,000 rpm for 10 min) and a 10 μl sample was taken from each well. The samples were then analysed by UV absorption at 280 nm for peptide quantification. Peptide concentration results are given as UV absorption at 280 nm of the sample subtracted UV absorption at 280 nm of a well comprising 10 μl water.
The buffers used were as follows: • Buffer system 1 (for the pH range from pH 3.0-7.5)
• Buffer system 2 (for the pH ranae from pH 7.5-11.0)
Solubility of liraglutide was determined using Assay (I) described herein. Liraglutide was prepared using Method 1 (evaporation) or Method 2 (precipitation) as described in subsection “96-well plate preparation”.

With CCCCCCCCCCCCCCCC(=O)N[C@@H](CCC(=O)NCCCC[C@H](NC(=O)[C@H](C)NC(=O)[C@H](C)NC(=O)[C@H](CCC(N)=O)NC(=O)CNC(=O)[C@H](CCC(=O)O)NC(=O)[C@H](CC(C)C)NC(=O)[C@H](Cc1ccc(O)cc1)NC(=O)[C@H](CO)NC(=O)[C@H](CO)NC(=O)[C@@H](NC(=O)[C@H](CC(=O)O)NC(=O)[C@H](CO)NC(=O)[C@@H](NC(=O)[C@H](Cc1ccccc1)NC(=O)[C@@H](NC(=O)CNC(=O)[C@H](CCC(=O)O)NC(=O)[C@H](C)NC(=O)[C@@H](N)Cc1cnc[nH]1)[C@@H](C)O)[C@@H](C)O)C(C)C)C(=O)N[C@@H](CCC(=O)O)C(=O)N[C@@H](Cc1ccccc1)C(=O)N[C@H](C(=O)N[C@@H](C)C(=O)N[C@@H](Cc1c[nH]c2ccccc12)C(=O)N[C@@H](CC(C)C)C(=O)N[C@H](C(=O)N[C@@H](CCCNC(=N)N)C(=O)NCC(=O)N[C@@H](CCCNC(=N)N)C(=O)NCC(=O)O)C(C)C)[C@@H](C)CC)C(=O)O [liraglutide, Arg34,Lys26-(N-epsilon-(gamma-L-glutamyl(N-alfa-hexadecanoyl)))-GLP-1(7-37)] the “Peptide concentration after 5 min” value (DMF 50.9% w/w, pH 5.8, RT) was 0.3 mg/mL, the “Peptide concentration after 180 min” value (DMF 50.9% w/w, pH 5.8, RT) was 0.3 mg/mL and the “Peptide concentration after 24 h” value (DMF 50.9% w/w, pH 5.8, RT) was 0.2 mg/mL. For the same compound, the “Peptide concentration after 5 min” value (DMF 50.9% w/w, pH 6.3, RT) was 0.3 mg/mL, the “Peptide concentration after 180 min” value (DMF 50.9% w/w, pH 6.3, RT) was 0.3 mg/mL and the “Peptide concentration after 24 h” value (DMF 50.9% w/w, pH 6.3, RT) was 0.5 mg/mL. For the same compound, the “Peptide concentration after 5 min” value (DMF 50.9% w/w, pH 6.7, RT) was 0.3 mg/mL, the “Peptide concentration after 180 min” value (DMF 50.9% w/w, pH 6.7, RT) was 0.3 mg/mL and the “Peptide concentration after 24 h” value (DMF 50.9% w/w, pH 6.7, RT) was 0.4 mg/mL. The “Peptide concentration after 5 min” value (DMF 50.9% w/w, pH 6.9, RT) was 0.3 mg/mL, the “Peptide concentration after 180 min” value (DMF 50.9% w/w, pH 6.9, RT) was 0.4 mg/mL and the “Peptide concentration after 24 h” value (DMF 50.9% w/w, pH 6.9, RT) was 0.5 mg/mL. For the same compound, the “Peptide concentration after 5 min” value (DMF 50.9% w/w, pH 7.2, RT) was 0.3 mg/mL, the “Peptide concentration after 180 min” value (DMF 50.9% w/w, pH 7.2, RT) was 0.4 mg/mL and the “Peptide concentration after 24 h” value (DMF 50.9% w/w, pH 7.2, RT) was 0.7 mg/mL. The “Peptide concentration after 5 min” value (DMF 50.9% w/w, pH 7.5, RT) was 1.0 mg/mL, the “Peptide concentration after 180 min” value (DMF 50.9% w/w, pH 7.5, RT) was over 4.0 mg/mL and the “Peptide concentration after 5 min” value (DMF 50.9% w/w, pH 8.0, RT) was 1.0 mg/mL. For the same compound, the “Peptide concentration after 180 min” value (DMF 50.9% w/w, pH 8.0, RT) was over 4.0 mg/mL, the “Peptide concentration after 5 min” value (DMF 50.9% w/w, pH 8.5, RT) was 2.1 mg/mL and the “Peptide concentration after 180 min” value (DMF 50.9% w/w, pH 8.5, RT) was over 4.0 mg/mL. For the same compound, the “Peptide concentration after 5 min” value (DMF 50.9% w/w, pH 9.0, RT) was 3.2 mg/mL, the “Peptide concentration after 180 min” value (DMF 50.9% w/w, pH 9.0, RT) was over 4.0 mg/mL and the “Peptide concentration after 5 min” value (DMF 50.9% w/w, pH 9.5, RT) was 2.6 mg/mL. For the same compound, the “Peptide concentration after 180 min” value (DMF 50.9% w/w, pH 9.5, RT) was over 4.0 mg/mL, the “Peptide concentration after 5 min” value (DMF 50.9% w/w, pH 10.0, RT) was 3.8 mg/mL and the “Peptide concentration after 180 min” value (DMF 50.9% w/w, pH 10.0, RT) was over 4.0 mg/mL. For the same compound, the “Peptide concentration after 5 min” value (DMF 50.9% w/w, pH 10.5, RT) was 4.0 mg/mL, the “Peptide concentration after 180 min” value (DMF 50.9% w/w, pH 10.5, RT) was over 4.0 mg/mL and the “Peptide concentration after 5 min” value (DMF 50.9% w/w, pH 11.0, RT) was 1.7 mg/mL. For the same compound, the “Peptide concentration after 180 min” value (DMF 50.9% w/w, pH 11.0, RT) was over 4.0 mg/mL, the “Peptide concentration after 5 min” value (DMF 57.3% w/w, pH 3.1, RT) was 0.2 mg/mL and the “Peptide concentration after 180 min” value (DMF 57.3% w/w, pH 3.1, RT) was 0.2 mg/mL. For the same compound, the “Peptide concentration after 24 h” value (DMF 57.3% w/w, pH 3.1, RT) was 0.3 mg/mL, the “Peptide concentration after 5 min” value (DMF 57.3% w/w, pH 4.8, RT) was 0.2 mg/mL and the “Peptide concentration after 180 min” value (DMF 57.3% w/w, pH 4.8, RT) was 0.2 mg/mL. The “Peptide concentration after 24 h” value (DMF 57.3% w/w, pH 4.8, RT) was 0.2 mg/mL, the “Peptide concentration after 5 min” value (DMF 57.3% w/w, pH 5.8, RT) was 0.3 mg/mL and the “Peptide concentration after 180 min” value (DMF 57.3% w/w, pH 5.8, RT) was 0.3 mg/mL. The “Peptide concentration after 24 h” value (DMF 57.3% w/w, pH 5.8, RT) was 0.2 mg/mL, the “Peptide concentration after 5 min” value (DMF 57.3% w/w, pH 6.3, RT) was 0.2 mg/mL and the “Peptide concentration after 180 min” value (DMF 57.3% w/w, pH 6.3, RT) was 0.3 mg/mL. For the same compound, the “Peptide concentration after 24 h” value (DMF 57.3% w/w, pH 6.3, RT) was 0.4 mg/mL, the “Peptide concentration after 5 min” value (DMF 57.3% w/w, pH 6.7, RT) was 0.3 mg/mL and the “Peptide concentration after 180 min” value (DMF 57.3% w/w, pH 6.7, RT) was 0.3 mg/mL. For the same compound, the “Peptide concentration after 24 h” value (DMF 57.3% w/w, pH 6.7, RT) was 0.3 mg/mL, the “Peptide concentration after 5 min” value (DMF 57.3% w/w, pH 6.9, RT) was 0.7 mg/mL and the “Peptide concentration after 180 min” value (DMF 57.3% w/w, pH 6.9, RT) was 0.4 mg/mL. The “Peptide concentration after 24 h” value (DMF 57.3% w/w, pH 6.9, RT) was 0.4 mg/mL and the “Peptide concentration after 5 min” value (DMF 57.3% w/w, pH 7.2, RT) was 0.3 mg/mL.

Reference: patent US20210261642A1, “SOLUBILITY OF GLP-1 PEPTIDE” (Novo Nordisk A/S, priority 2017, published 2021)
